Data as given in paper doi:10.1101/2025.04.06.647459.

Chains of the proteins cited; added tags and fusions are not shown.
UniProt P63168: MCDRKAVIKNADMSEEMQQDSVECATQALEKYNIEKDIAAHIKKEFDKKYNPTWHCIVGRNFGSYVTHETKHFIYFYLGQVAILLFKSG

Target: T1, EML3 TQT86AAA, endogenous in homozygous Eml3^TQT86AAA mice (mouse (endogenous in placenta)) (UniProt Q8VC03)
T1 sequence: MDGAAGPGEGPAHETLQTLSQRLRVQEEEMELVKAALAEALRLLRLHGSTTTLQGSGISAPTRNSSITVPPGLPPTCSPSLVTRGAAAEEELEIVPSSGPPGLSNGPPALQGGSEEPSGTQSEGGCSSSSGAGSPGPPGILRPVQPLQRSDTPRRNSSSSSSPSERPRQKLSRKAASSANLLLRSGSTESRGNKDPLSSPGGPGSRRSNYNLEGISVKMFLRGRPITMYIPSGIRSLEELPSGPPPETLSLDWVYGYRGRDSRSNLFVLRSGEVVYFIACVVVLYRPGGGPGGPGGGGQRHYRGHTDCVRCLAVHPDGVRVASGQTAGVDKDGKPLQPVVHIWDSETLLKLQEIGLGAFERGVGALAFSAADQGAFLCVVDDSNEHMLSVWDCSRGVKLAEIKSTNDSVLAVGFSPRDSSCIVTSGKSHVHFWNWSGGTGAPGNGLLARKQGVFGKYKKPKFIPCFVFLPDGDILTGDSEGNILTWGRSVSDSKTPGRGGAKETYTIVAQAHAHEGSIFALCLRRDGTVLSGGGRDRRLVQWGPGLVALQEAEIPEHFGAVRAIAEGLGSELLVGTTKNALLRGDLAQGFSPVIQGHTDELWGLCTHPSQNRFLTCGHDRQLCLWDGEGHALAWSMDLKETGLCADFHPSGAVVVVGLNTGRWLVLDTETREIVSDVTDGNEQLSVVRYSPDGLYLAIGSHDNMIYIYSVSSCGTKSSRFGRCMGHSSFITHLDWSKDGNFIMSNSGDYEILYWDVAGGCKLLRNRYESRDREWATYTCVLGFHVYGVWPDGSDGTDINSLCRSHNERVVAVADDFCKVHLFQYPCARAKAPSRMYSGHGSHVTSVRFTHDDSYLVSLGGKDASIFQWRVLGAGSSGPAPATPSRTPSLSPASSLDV
Assay: affinity purification with mass spectrometry

With “cytoplasmic dynein light chain DYNLL1, endogenous (from UniProt P63168 1-89)” the binding was “no binding”.

No constants are given. Whether binding was seen depends on the method and setting. In cells and extracts the contact can be indirect. A yes stands for co-enrichment or nearness to the bait. Other partners may have been found. No binding means not detected with the bait.
